From paper PMC5509727
These are yes or no findings as the source states them, for the method shown. In cells and extracts the contact can be indirect. Here binding means that the protein was enriched with, or labelled near, the bait; the list need not be complete.

Biological target: T1, IFT88, endogenous in NIH3T3 cells (mouse (endogenous in NIH3T3)) (UniProt Q61371)
T1 sequence: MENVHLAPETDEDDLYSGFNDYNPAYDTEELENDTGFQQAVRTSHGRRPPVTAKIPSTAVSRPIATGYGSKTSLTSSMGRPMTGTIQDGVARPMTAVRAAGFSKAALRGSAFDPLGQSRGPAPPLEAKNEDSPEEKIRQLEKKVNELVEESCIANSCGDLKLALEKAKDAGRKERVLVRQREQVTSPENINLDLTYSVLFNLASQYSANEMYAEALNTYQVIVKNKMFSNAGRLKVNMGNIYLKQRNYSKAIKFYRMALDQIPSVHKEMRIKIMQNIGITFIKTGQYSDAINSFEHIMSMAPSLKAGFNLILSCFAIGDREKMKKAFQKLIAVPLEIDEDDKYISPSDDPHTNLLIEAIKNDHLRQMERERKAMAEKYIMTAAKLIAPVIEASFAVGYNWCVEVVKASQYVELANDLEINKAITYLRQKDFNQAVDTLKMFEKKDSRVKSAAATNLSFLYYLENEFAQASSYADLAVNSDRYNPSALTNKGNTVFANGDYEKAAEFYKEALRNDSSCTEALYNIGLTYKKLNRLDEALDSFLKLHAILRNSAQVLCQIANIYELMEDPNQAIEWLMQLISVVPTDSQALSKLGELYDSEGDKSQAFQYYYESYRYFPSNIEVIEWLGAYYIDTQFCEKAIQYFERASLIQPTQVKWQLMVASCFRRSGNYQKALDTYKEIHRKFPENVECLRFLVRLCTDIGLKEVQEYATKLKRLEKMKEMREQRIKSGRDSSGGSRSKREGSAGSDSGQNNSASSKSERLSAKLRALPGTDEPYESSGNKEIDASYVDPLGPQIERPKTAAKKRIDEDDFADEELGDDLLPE
Test: affinity purification with mass spectrometry; endogenous IFT88 precipitated with anti-IFT88 (protein A agarose, 4 °C overnight) from NIH3T3 lysate, normal IgG as control; SDS-PAGE, silver staining, unique bands excised for LC/MS-MS

B1: diacylglycerol kinase δ (DGKδ), endogenous in NIH3T3 cells (enzyme, UniProt E9PUQ8 1-1220)
chain: MAAAAGAPPPGPPQPPPPPPPEESSDSEPEAEPGSPQKLIRKVSTSGQIRQKTILKEGMLTKQNNSFQRSKRRYFKLRGRTLYYAKTAKSIIFDEVDLTDASVAESSTKNVNNSFTVITPCRKLILCADNRKEMEDWIAALKTVQNKEHFEPTQYSMDHFSGMHNWYACSHARPTYCNVCREVLSGVTSHGLSCEVCKFKAHKRCAVRATSNCKWTTLASIGKDIIEDEDGIAMPHQWLEGNLPVSAKCIVCDKTCGSVLRLQDWRCLWCKAMVHTSCKESLVMKCPLGLCKVSVIPPTALNSIDSDGFWKATCPPSCTSPLLVFVNSKSGDNQGVKFLRRFKQLLNPAQVFDLMNGGPHLGLRLFQKFDTFRILVCGGDGSVGWVLSEIDSLNLHKQCQLGVLPLGTGNDLARVLGWGSACDDDTQLPQILAKLERASTKMLDRWSVMAYETKLPRQASSSTVTEDFSEDSEVQQILFYEDSVAAHLSKILTSDQHSVVISSAKVLCETVKDFVARVGKAYEKTTESSQESEVMAKKCSVLKEKLDSLLKTLDDESQASSSLSNPPPTIAEEAEDGDGSGNICSSTGDHLVGSACPSRPQIFRPREQLMLRANSLKKAIRQIIEHTEKAVDEQNAQTQEQQGFVLGLSESEKKDLKTDNRVCTSSVHSESCVIAKGRSQRKASRAPCEKLVSKGLSLGSSASLPPGTGSRDSLPALNTKILYPSVRAGMSGSLPGGSVISRLLINADPFNAEPENLEYYTEKCVMNNYFGIGLDAKISLDFNNKRDEHPEKCRSRTKNMMWYGVLGTKELLHRTYRNLEQKVLLECDGRPIPLPSLQGIAVLNIPSYAGGTNFWGGTKEDDTFAAPSFDDKILEVVAVFGSMQMAVSRVIKLQHHRIAQCRTVKISILGDEGVPVQVDGEAWIQPPGYIRIVHKNRAQTLTRDRAFENTLKSWEDKQKCELSRPPSFSLHPEILSEEEATQMDQFGQAAGGLIHSIREIAQSHRAMEQELAHAVNASSKAMERVYGKPRTAEGLNCSFVLEMVNNIRALRSETELLLAGKMALQLDPPQKERLGAALIEMDQQLRKLTDTPWLCQPLEPGEEESLQQNVMLDLTKRSRSGKFRLVTKFKKEKNNKNKEVHSNLGGPVHLWGTEEVAAWLEHLSLCEYKDIFTRHDIRGSELLHLERRDLKDLGVTKVGHMKRILCGIKELSRSSPAAEA
- binding: binds

B2: Klra19, endogenous in NIH3T3 cells (protein, UniProt Q9JHV3 1-266)
chain: MSEPEVTYSTVRLHKSSGLQKLVRHEDTEGPREAGYRKCSGSWQLIVKALGILCFVLLITVAVLAIKIFQYGQHKQEIHEPLNYHHNFSNMQSDFNLKEEMLTNKSIDSRSGNELLESLNREQNRGYSETKTDVDSSQDTGTGVKYWFCYQTKCYYFIMNKNTWSGCKQNCQYYSLPLVKIADENELKFLQFQVIPDSYWIGLSYDKKKKQWAWIENGQSKLDMKIRKMNFKPEGCVLLSKRRLEDTNCNNSHYCICGKKLDKFPH
- binding: binds
